Experimental findings from doi:10.1101/2021.06.09.447684 are described below.

The target of this test is T1, CAVIN1 (human (endogenous in HeLa)) (UniProt Q6NZI2).
T1 sequence: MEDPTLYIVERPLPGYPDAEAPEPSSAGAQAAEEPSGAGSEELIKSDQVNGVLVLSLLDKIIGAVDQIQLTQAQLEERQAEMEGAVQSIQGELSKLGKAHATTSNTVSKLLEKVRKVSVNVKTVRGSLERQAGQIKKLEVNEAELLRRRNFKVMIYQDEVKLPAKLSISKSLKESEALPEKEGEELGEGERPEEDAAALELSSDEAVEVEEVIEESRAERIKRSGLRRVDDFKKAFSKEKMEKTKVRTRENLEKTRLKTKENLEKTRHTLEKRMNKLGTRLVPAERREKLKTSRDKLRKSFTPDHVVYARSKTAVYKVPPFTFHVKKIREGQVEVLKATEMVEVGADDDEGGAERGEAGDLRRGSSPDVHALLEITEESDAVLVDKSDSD
Kind of test: co-IP.

Results are given in words; binding and its absence hold for the method and conditions named. In cells and extracts the contact can be indirect. Some results given as binding are weak or reduced against the parent protein; the word gives no strength.

B1: nuclear factor-erythroid factor 2-related factor 2 (NRF2) (protein, UniProt Q16236 1-605)
chain: MMDLELPPPGLPSQQDMDLIDILWRQDIDLGVSREVFDFSQRRKEYELEKQKKLEKERQEQLQKEQEKAFFAQLQLDEETGEFLPIQPAQHIQSETSGSANYSQVAHIPKSDALYFDDCMQLLAQTFPFVDDNEVSSATFQSLVPDIPGHIESPVFIATNQAQSPETSVAQVAPVDLDGMQQDIEQVWEELLSIPELQCLNIENDKLVETTMVPSPEAKLTEVDNYHFYSSIPSMEKEVGNCSPHFLNAFEDSFSSILSTEDPNQLTVNSLNSDATVNTDFGDEFYSAFIAEPSISNSMPSPATLSHSLSELLNGPIDVSDLSLCKAFNQNHPESTAEFNDSDSGISLNTSPSVASPEHSVESSSYGDTLLGLSDSEVEELDSAPGSVKQNGPKTPVHSSGDMVQPLSPSQGQSTHVHDAQCENTPEKELPVSPGHRKTPFTKDKHSSRLEAHLTRDELRAKALHIPFPVEKIINLPVVDFNEMMSKEQFNEAQLALIRDIRRRGKNKVAAQNCRKRKLENIVELEQDLDHLKDEKEKLLKEKGENDKSLHLLKKQLSTLYLEVFSMLRDEDGKPYSPSEYSLQQTRDGNVFLVPKSKKPDVKKN
Consider B1, for which the binding entry is “binds”.
